# Source: patent US20150087604A1 (TIANJIN TOPTECH BIO-SCIENCE & TECHNOLOGY CO., LTD., priority 2011, published 2015)
# Experiment: general procedure: Fmoc solid-phase peptide synthesis; chloromethylated polystyrene (chlorinated benzyl ester resin)
# Conditions: whole synthesis, HPLC (Agela C18 column)
substance,measurement,setting,value
Gly-Gly-Cys-Arg-His-Lys-Leu-Val-Cys-Ala-Pro-Ala-Pro-Cys-Asn-Phe-Phe-Thr,final HPLC purity,run 1,98%
same,final HPLC purity,run 2,98.11%
